Measured data: PubChem BioAssay AID1224830 (NIAID, 2016)
Here is an unselected part of about 18,000 deposited reagents. Over the whole deposit, about 2,900 (16%) were called active. 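Calls are made per well; low scores hint the gene aids the LPS response, high scores that it dampens it.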 Repeated entries: four replicate wells of each siRNA pool.

- Aim: 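Host factors that control LPS-induced TNF expression in human macrophages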 (primary screen)
- System: human THP-1 monocytic leukaemia cells, TNF dual-luciferase reporter clone, PMA-differentiated to macrophage-like cells
- Knock-down reagent: siRNA pool against human genes, 50 nM
- Duration: LPS for 4 h, given about 3 days after siRNA transfection
- Treatment: bacterial LPS (TLR4 ligand), 10 ng/ml
- Measurement: 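TNF firefly reporter luminescence divided by renilla, normalised to the plate median, then turned into a robust z-score for each replicate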
- Direction: TNF reporter robust z-score: higher = stronger TNF reporter response to LPS
- Hit rule: 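a well is active when its z-score exceeds 2.8 or falls below -1.5; control wells carry no call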

What is on record for TMEM41A?
TNF reporter robust z-score: -1.27; activity call: inactive

With TMEM41A, how do the results read?
TNF reporter robust z-score: 0.25; activity call: inactive

What did the screen give for TMEM41A?
TNF reporter robust z-score: -0.13; activity call: inactive

How did the screen score TMEM41A?
TNF reporter robust z-score: 0.09; activity call: inactive

What is on record for LYRM2?
TNF reporter robust z-score: 0.09; activity call: inactive

What did the screen give for LYRM2?
TNF reporter robust z-score: 1.3; activity call: inactive

What did the screen give for LYRM2?
TNF reporter robust z-score: 0; activity call: inactive

What did the screen give for FBXL21P?
TNF reporter robust z-score: -0.83; activity call: inactive

How did the screen score FBXL21P?
TNF reporter robust z-score: -0.07; activity call: inactive

What is on record for FBXL21P?
TNF reporter robust z-score: -0.73; activity call: inactive

What did the screen give for DCST1?
TNF reporter robust z-score: 1.43; activity call: inactive

What did the screen give for DCST1?
TNF reporter robust z-score: 1.88; activity call: inactive

With DCST1, how do the results read?
TNF reporter robust z-score: -0.21; activity call: inactive

What is on record for DCST1?
TNF reporter robust z-score: -1.07; activity call: inactive

Which result is listed for GATA6?
TNF reporter robust z-score: 0.2; activity call: inactive

For GATA6, what was measured?
TNF reporter robust z-score: -0.14; activity call: inactive

For GATA6, what does the deposit list?
TNF reporter robust z-score: 0.3; activity call: inactive

For GATA6, what was measured?
TNF reporter robust z-score: 0.73; activity call: inactive

Which result is listed for ITGA7?
TNF reporter robust z-score: 0.34; activity call: inactive

For ITGA7, what was measured?
TNF reporter robust z-score: 7.82; activity call: active

What is on record for ITGA7?
TNF reporter robust z-score: -0.28; activity call: inactive

What is on record for ITGA7?
TNF reporter robust z-score: 0.64; activity call: inactive
